Binding data for 2 substances are collected here from PMC5356543.

Sequences of proteins named here, by UniProt entry; tags and fusion partners are left off. A change or cut given only in a name is not applied to a line headed by its entry. Residues count along the entry.
UniProt P02452: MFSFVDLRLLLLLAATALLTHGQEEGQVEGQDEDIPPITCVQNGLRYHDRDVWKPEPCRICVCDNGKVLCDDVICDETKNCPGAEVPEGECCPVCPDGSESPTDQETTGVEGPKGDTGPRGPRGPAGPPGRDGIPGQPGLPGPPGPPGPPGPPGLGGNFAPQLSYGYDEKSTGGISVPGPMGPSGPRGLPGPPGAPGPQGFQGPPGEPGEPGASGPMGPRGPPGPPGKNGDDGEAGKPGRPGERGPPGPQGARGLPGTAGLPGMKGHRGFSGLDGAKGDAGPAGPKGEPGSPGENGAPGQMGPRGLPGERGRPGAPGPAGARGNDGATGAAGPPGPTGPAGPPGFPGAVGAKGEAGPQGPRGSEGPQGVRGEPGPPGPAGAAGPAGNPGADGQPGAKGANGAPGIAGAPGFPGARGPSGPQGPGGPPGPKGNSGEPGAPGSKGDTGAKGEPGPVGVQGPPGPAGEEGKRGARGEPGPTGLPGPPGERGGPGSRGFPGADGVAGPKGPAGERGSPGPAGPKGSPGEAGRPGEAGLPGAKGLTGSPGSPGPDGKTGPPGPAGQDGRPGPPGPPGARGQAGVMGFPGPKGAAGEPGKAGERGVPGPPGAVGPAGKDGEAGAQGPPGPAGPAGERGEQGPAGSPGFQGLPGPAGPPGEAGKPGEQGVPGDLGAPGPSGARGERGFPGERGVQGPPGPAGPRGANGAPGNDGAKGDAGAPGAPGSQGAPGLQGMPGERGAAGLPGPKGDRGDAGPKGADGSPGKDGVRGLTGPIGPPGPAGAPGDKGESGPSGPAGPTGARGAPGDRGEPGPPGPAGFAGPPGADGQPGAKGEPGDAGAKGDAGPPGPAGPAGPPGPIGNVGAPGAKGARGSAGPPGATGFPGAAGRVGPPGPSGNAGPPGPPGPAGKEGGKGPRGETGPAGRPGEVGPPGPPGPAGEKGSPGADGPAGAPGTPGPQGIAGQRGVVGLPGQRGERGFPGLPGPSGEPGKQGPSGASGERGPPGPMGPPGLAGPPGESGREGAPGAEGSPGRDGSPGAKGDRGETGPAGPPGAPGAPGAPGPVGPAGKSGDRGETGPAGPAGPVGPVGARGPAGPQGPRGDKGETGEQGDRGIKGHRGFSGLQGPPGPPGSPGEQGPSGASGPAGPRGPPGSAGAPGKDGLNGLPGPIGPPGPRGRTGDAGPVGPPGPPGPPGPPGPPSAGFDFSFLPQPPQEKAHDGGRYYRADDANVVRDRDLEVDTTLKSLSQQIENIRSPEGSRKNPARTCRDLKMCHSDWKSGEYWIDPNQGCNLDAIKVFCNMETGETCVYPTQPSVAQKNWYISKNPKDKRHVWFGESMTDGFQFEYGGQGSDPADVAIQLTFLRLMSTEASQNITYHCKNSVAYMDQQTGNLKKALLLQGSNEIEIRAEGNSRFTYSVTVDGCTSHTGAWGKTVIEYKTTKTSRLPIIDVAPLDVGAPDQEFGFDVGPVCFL
UniProt P08123: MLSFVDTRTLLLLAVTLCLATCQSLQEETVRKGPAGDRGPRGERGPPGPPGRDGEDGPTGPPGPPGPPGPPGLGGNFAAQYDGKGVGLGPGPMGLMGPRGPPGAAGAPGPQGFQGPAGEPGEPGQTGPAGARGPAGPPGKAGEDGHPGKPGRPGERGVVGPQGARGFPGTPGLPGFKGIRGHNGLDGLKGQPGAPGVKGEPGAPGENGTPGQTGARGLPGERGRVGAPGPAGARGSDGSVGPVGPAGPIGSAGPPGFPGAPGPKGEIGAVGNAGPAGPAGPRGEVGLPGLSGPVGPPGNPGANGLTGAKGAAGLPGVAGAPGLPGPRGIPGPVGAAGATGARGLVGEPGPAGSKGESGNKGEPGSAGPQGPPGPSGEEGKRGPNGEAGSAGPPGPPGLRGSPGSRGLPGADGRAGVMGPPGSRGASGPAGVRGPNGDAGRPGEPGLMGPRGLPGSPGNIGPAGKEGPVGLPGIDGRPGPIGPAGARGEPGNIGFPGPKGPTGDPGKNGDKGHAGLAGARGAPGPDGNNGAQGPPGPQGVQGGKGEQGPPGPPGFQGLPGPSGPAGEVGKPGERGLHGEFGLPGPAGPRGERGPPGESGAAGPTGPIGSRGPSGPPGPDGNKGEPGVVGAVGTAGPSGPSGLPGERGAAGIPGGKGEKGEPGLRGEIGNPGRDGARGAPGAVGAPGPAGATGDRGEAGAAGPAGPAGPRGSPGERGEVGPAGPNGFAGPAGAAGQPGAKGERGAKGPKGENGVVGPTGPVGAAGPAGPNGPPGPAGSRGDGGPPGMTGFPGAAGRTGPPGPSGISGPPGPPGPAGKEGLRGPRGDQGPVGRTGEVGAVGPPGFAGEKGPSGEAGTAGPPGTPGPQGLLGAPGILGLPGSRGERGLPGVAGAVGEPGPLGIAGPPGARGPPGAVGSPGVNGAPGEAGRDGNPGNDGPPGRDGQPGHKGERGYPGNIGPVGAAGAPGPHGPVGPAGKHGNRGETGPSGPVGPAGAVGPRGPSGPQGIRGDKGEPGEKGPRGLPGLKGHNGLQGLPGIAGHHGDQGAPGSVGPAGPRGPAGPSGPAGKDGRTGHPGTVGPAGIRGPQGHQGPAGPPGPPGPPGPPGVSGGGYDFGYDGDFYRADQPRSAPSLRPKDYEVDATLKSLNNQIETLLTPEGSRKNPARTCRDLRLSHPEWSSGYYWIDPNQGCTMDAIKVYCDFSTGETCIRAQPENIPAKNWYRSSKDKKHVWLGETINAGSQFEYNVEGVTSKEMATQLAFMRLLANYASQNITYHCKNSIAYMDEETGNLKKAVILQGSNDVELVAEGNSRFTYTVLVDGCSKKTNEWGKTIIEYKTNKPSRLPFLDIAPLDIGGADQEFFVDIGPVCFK
UniProt P11276, residues 33-2477: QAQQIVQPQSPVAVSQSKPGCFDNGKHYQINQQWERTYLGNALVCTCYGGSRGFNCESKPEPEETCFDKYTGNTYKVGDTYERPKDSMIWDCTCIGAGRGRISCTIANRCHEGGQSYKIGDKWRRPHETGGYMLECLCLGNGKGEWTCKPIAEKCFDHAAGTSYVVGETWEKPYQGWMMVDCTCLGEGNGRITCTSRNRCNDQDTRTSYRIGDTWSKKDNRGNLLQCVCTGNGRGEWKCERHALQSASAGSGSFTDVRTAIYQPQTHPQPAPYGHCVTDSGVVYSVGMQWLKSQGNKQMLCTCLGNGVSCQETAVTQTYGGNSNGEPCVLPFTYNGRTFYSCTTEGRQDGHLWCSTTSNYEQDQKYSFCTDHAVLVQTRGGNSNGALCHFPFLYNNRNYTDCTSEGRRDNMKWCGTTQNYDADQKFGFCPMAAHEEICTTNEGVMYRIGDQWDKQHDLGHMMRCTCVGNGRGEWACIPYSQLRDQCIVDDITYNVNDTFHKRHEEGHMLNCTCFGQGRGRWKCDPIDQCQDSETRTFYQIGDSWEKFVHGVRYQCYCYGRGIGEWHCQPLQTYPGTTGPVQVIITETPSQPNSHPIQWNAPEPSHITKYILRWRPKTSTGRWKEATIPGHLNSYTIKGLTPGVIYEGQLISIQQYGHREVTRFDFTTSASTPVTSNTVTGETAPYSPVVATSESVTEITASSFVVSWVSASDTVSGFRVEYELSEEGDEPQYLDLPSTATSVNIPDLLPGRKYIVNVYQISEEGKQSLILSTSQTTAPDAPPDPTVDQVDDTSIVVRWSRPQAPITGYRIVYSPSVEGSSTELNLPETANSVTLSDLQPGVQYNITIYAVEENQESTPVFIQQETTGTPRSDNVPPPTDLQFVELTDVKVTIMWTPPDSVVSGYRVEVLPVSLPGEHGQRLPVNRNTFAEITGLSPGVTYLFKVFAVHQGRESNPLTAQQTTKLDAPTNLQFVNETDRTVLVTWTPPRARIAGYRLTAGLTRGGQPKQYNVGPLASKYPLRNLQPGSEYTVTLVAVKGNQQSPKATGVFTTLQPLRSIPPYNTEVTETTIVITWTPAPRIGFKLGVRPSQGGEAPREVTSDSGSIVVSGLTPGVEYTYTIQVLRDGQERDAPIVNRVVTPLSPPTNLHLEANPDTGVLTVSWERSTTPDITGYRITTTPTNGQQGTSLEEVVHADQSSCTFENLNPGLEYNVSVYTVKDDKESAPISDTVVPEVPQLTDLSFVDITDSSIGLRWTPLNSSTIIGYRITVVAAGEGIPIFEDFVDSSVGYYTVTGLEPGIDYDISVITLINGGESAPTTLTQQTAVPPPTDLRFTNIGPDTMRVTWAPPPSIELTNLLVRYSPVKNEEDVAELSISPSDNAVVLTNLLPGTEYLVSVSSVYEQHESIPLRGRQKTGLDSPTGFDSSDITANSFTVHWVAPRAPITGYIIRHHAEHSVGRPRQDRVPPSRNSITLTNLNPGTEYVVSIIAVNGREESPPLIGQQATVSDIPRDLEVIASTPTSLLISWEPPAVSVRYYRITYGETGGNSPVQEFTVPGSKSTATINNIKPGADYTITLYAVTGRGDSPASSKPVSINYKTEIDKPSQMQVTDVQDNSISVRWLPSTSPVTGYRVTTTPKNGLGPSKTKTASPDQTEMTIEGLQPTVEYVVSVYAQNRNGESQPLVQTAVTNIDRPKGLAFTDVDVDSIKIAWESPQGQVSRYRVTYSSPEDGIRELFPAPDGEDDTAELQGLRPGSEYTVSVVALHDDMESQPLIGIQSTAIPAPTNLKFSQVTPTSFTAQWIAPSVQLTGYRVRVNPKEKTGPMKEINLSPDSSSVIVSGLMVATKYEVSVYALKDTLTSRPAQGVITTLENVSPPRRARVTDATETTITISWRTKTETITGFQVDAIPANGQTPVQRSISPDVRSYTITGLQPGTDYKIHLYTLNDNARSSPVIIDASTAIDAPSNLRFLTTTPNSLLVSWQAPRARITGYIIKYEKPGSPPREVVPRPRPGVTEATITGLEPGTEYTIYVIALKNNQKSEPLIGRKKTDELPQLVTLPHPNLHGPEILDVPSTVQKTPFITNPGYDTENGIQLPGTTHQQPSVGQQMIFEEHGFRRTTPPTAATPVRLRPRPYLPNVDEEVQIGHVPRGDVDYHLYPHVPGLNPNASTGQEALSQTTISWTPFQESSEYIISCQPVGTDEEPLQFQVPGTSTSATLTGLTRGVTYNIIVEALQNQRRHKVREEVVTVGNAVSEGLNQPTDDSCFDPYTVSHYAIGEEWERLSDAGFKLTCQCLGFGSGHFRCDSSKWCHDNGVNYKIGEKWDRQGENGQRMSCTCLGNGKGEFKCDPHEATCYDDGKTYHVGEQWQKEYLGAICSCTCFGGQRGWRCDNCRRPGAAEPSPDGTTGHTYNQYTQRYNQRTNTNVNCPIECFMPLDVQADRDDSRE
UniProt P07204, residues 19-173: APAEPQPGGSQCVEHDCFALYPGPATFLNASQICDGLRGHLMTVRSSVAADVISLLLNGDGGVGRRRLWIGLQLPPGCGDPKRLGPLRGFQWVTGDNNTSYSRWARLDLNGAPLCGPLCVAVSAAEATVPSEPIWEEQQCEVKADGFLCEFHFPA
UniProt P15306, residues 17-577: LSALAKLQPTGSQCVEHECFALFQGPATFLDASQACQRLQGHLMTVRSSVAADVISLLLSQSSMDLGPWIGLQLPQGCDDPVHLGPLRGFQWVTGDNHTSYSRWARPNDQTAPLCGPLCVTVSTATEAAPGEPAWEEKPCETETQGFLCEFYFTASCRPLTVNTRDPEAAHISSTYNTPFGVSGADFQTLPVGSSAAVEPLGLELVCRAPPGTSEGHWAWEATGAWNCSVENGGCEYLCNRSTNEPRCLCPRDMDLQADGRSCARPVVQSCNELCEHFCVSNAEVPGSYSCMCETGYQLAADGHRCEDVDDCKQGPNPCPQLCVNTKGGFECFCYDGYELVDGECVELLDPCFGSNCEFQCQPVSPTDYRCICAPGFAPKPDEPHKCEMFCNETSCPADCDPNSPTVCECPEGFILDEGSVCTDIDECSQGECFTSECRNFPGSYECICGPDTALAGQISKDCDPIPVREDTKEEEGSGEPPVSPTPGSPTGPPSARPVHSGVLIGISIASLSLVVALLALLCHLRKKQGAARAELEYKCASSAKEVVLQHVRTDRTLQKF

The target in assay [1] is human placenta collagen type I (human) (UniProt P02452+P08123). In words: ELISA; solid-phase binding assay: ECM proteins (10 μg/mL) coated on Maxisorp wells in carbonate buffer (pH 9.6) overnight at 4°C, blocked with 1% BSA; increasing concentrations of rTMD1 in PBS with 0.1% BSA, overnight at 4°C; bound rTMD1 detected with an anti-His antibody; both purified.
For assay [2], the target named is fibronectin on tumor blood vessels of mice (mouse (endogenous in B16F10 tumors grown in C57BL/6 mice)) (UniProt P11276). The experiment in a line: proximity ligation; Duolink In Situ on acetone-fixed frozen sections of B16F10 tumors from C57BL/6 mice; rabbit anti-mouse TM lectin-like domain and goat anti-fibronectin (sc-6952) primary antibodies.

These are yes or no findings as the source states them, for the method shown. For some assays here: Binding seen in cells or lysates may run through a third protein. Some binding calls cover weakened binding; strength is not graded here.

Take “recombinant TM lectin-like domain (rTMD1) (from UniProt P07204 19-173) (domain or fragment)”: the binding entry in assay [1] is listed as “binds weakly”.

As for “thrombomodulin (TM) on tumor blood vessels of mice (from UniProt P15306 17-577)”, the binding entry in assay [2] is “binds”.
